Assay results published in publication PMC10265101.
No constants are given. Whether binding was seen depends on the method and setting. Some entries that bind do so weakly or less than the wild type.

Amino acid sequences for entries named in this document (tags omitted). Residues count along the entry.
UniProt Q9NZQ7, residues 19-290: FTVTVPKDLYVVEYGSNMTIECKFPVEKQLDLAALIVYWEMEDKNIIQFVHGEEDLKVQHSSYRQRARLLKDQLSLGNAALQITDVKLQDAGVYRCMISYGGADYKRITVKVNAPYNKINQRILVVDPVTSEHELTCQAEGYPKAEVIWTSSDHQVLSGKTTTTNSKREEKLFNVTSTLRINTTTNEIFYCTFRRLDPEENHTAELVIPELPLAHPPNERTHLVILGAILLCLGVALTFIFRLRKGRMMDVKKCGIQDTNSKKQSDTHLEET

Target: PD-L1 on A549, H1975 and MDA-MB-231 cells (human (endogenous in A549, H1975, MDA-MB-231)) (UniProt Q9NZQ7)
Assay: flow cytometry on cells; non-contact transwell coculture (0.4 µm): 1 x 10^5 cells at the bottom, 5 x 10^5 Nb-CAR.BiTE-γδT cells on top, 24 h; bottom cells stained with anti-VHH antibody

- binding: binds
B1: secreted PD-L1/CD3ε Nb-BiTE from Nb-CAR.BiTE-γδT cells (bispecific antibody)
chain: HVQLVESGGGLVQPGGSLRLSCAASGFTFSSKAMSWVRQAPGKGLDWVSTINSGGGNTYYSDSVKGRFTISRDNAKNTLYLQLNSLKTEDTAMYYCSRCSDIYCGGQYTYRGQGTLVTVSSGGGGSGGGGSGGGGSEVQLVESGGGLVQPGGSLRLSCVASGFTFSSIGMSWVRQAPGKGLEWVSGLNPVGSHTGYADSVKGRFTISRDNAKNTLHLQLNSLKTEDTAMYYCQRGYTCSGDLCERGQGTQVTVSSGGGGSGGGGSGGGGSHVQLVESGGGSVQAGGSLRLSCTVSGVIFKNEYMGWFRQAPGKEREGVAAASPGGTITYYGDSVKGRFTISRDNAKNTVYLQMNRLKPEDTAMYYCALDPSTTSWSIIRHGPSLWRYSGRGTQVTVSS
